Some peptides are written in HELM: one residue between dots, names in brackets for other building blocks, links after the first $.

This data set in a line: general procedure: Fmoc solid-phase peptide synthesis; Rink amide resin (side-chain anchoring of Fmoc-Glu-ODmab); cyclisation: DIC/HOBt, then TBTU/HOBt/DIPEA. The note with it: for final purity (method not given): HPLC.

For “PEPTIDE1{P.[dN].S.[bAA14].N.[D-Tyr3CF3].[dN].Q}$PEPTIDE1,PEPTIDE1,1:R1-8:R2$$$V2.0”, the “final purity (method not given)” value (late stage modification step) came out at 95%. In addition, under “late stage modification step, on iturin A2”, the step yield entry was “yield 40%”. In addition, where the note is “whole synthesis”, the isolated yield result was “yield 15%” and the “final purity (method not given)” value stood at 96%.
For “PEPTIDE1{P.[dN].S.[CF3Itu].N.[dY].[dN].Q}$PEPTIDE1,PEPTIDE1,1:R1-8:R2$$$V2.0”, under “whole synthesis”, the isolated yield result is reported as “yield 15%” and the “final purity (method not given)” value is recorded as approximately 95%.
As for “PEPTIDE1{P.[dN].S.[bAA14].N.[D-Tyr35CF3].[dN].Q}$PEPTIDE1,PEPTIDE1,1:R1-8:R2$$$V2.0”, under “whole synthesis”, the isolated yield was 13% and the “final purity (method not given)” value came out at 98%.

For the origin of these results see publication PMC12777510 (Chempluschem, 2025).
